Data source: PubChem BioAssay AID1224831 (NIAID, 2016)
The whole screen tested about 3,500 reagents; below is an unselected part. In the full data, 731 (21%) were called active. 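Active means either lowered or raised reporter signal; the gene-median score did not drive the per-siRNA calls.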 A number with no mark means an inactive call. The numbers tell different reagents against one gene apart.

Aim: 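Confirming genome-wide hits on LPS-triggered TNF-alpha induction with independent siRNA sequences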 (follow-up of hits)
Cell system: human THP-1 B5 monocytic leukaemia cells carrying a TNF promoter luciferase reporter, made macrophage-like with PMA
Knock-down reagent: single siRNA against human genes, 50 nM
Time to read-out: about 68 h of knock-down, then 4 h LPS
Treatment: LPS (Salmonella minnesota, TLR-grade) at 10 ng/ml for 4 h; PMA 5 ng/ml present during knock-down
Read-out: 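Firefly to renilla luciferase ratio of a TNF promoter reporter after 4 h LPS, scaled to plate median, turned into robust z-score, averaged over replicates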
Scale: TNF reporter z-score: higher = stronger LPS-induced TNF reporter signal; z-score, median over gene's siRNAs: higher = stronger TNF reporter signal across the gene's siRNAs
Hit rule: 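Two-sided call: reduced or raised TNF reporter signal counts as active once mean z reaches about -1 or below, or about 1.5 or above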
Meaning of the calls: active = changed TNF reporter (either direction); inactive = little change

Target gene | reagent | TNF reporter z-score, replicate mean | z-score, median over gene's siRNAs
SYNJ2BP | 1 | -0.62 | 0.24
SYNJ2BP | 2 | 0.38 | 0.24
SYNJ2BP | 3 | 0.39 | 0.24
SYNJ2BP | 4 | -0.51 | 0.24
SYNJ2BP | 5 | 0.81 | 0.24
SYNJ2BP | 6 | 0.1 | 0.24
FBXL16 | 1 | 1.03 | 0.425
FBXL16 | 2 | 0.7 | 0.425
FBXL16 | 3 | 0.15 | 0.425
FBXL16 | 4 | -0.36 | 0.425
FBXL16 | 5 | -0.06 | 0.425
FBXL16 | 6 | 2.5 (active) | 0.425
DGKK | 1 | 0.25 | 0.33
DGKK | 2 | -0.06 | 0.33
DGKK | 3 | 0.68 | 0.33
DGKK | 4 | -0.1 | 0.33
DGKK | 5 | 0.41 | 0.33
DGKK | 6 | 0.64 | 0.33
PPP1R10 | 1 | -0.31 | -1.11
PPP1R10 | 2 | -1.58 (active) | -1.11
PPP1R10 | 3 | -1.05 (active) | -1.11
PPP1R10 | 4 | -1.18 (active) | -1.11
PPP1R10 | 5 | 1.13 | -1.11
PPP1R10 | 6 | -1.31 (active) | -1.11
MIDEAS | 1 | -1.95 (active) | -1.77
MIDEAS | 2 | -1.95 (active) | -1.77
MIDEAS | 3 | -2.12 (active) | -1.77
MIDEAS | 4 | -1.6 (active) | -1.77
MIDEAS | 5 | -0.01 | -1.77
MIDEAS | 6 | -0.48 | -1.77
ZNF319 | 1 | -0.7 | -0.015
ZNF319 | 2 | -0.64 | -0.015
ZNF319 | 3 | 0.51 | -0.015
ZNF319 | 4 | 0.18 | -0.015
ZNF319 | 5 | 1.1 | -0.015
ZNF319 | 6 | -0.21 | -0.015

As entered above:
Under “TNF reporter z-score, replicate mean”, FBXL16 #2 shows 0.7
PPP1R10 #5, z-score, median over gene's siRNAs → -1.11
Entry of MIDEAS #2 under “TNF reporter z-score, replicate mean”: -1.95 (active)
Entry of FBXL16 #4 under “TNF reporter z-score, replicate mean”: -0.36
ZNF319 #3, z-score, median over gene's siRNAs → -0.015
Under “z-score, median over gene's siRNAs”, ZNF319 #4 is entered as -0.015

The results go on:
Target gene | reagent | TNF reporter z-score, replicate mean | z-score, median over gene's siRNAs
PIH1D2 | 1 | -0.36 | 0.235
PIH1D2 | 2 | 1.52 (active) | 0.235
PIH1D2 | 3 | 1.82 (active) | 0.235
PIH1D2 | 4 | 0.37 | 0.235
PIH1D2 | 5 | 0.1 | 0.235
PIH1D2 | 6 | -0.16 | 0.235
CD209 | 1 | -0.8 | 0.35
CD209 | 2 | 0.93 | 0.35
CD209 | 3 | -0.5 | 0.35
CD209 | 4 | 0.25 | 0.35
CD209 | 5 | 0.45 | 0.35
CD209 | 6 | 1.74 (active) | 0.35
PLEKHA4 | 1 | 0.49 | 0.4
PLEKHA4 | 2 | -1.22 (active) | 0.4
PLEKHA4 | 3 | -0.89 | 0.4
PLEKHA4 | 4 | 2.94 (active) | 0.4
PLEKHA4 | 5 | 0.31 | 0.4
PLEKHA4 | 6 | 1.2 | 0.4
CHST3 | 1 | -0.58 | 0.245
CHST3 | 2 | 0.86 | 0.245
CHST3 | 3 | 2 (active) | 0.245
CHST3 | 4 | -0.46 | 0.245
CHST3 | 5 | -0.37 | 0.245
CHST3 | 6 | 2.21 (active) | 0.245
